Reference: publication PMC12785948
No constants are given. Whether binding was seen depends on the method and setting. Binding seen in cells or lysates may run through a third protein. Some results given as binding are weak or reduced against the parent protein; the word gives no strength.

Protein sequences, listed by entry. Tags and fused reporters are not part of them.
UniProt P37238: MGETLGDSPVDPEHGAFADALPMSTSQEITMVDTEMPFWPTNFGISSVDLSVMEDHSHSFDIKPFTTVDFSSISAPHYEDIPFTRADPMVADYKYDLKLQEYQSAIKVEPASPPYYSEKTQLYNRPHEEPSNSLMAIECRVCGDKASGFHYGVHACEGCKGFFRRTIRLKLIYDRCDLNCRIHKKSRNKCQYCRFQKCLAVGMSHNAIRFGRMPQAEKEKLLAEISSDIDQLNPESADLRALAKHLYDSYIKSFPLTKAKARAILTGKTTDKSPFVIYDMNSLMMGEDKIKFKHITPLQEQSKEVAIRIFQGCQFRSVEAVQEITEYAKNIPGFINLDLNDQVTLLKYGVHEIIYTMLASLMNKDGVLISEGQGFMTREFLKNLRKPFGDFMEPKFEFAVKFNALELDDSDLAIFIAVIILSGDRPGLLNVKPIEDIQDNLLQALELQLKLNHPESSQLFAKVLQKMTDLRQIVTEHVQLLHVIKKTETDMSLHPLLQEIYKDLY
UniProt Q8BUN5: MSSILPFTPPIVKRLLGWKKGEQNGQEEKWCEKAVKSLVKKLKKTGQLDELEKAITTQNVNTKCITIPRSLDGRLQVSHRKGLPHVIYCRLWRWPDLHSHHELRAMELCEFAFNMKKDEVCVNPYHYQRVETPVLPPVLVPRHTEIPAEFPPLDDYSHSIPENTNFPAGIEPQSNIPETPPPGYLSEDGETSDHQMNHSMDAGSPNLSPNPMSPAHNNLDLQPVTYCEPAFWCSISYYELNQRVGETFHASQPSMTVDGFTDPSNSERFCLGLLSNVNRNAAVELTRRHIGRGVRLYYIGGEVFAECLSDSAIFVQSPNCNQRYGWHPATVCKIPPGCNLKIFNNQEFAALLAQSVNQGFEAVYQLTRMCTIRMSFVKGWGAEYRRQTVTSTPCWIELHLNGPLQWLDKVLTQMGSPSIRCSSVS
UniProt P46935: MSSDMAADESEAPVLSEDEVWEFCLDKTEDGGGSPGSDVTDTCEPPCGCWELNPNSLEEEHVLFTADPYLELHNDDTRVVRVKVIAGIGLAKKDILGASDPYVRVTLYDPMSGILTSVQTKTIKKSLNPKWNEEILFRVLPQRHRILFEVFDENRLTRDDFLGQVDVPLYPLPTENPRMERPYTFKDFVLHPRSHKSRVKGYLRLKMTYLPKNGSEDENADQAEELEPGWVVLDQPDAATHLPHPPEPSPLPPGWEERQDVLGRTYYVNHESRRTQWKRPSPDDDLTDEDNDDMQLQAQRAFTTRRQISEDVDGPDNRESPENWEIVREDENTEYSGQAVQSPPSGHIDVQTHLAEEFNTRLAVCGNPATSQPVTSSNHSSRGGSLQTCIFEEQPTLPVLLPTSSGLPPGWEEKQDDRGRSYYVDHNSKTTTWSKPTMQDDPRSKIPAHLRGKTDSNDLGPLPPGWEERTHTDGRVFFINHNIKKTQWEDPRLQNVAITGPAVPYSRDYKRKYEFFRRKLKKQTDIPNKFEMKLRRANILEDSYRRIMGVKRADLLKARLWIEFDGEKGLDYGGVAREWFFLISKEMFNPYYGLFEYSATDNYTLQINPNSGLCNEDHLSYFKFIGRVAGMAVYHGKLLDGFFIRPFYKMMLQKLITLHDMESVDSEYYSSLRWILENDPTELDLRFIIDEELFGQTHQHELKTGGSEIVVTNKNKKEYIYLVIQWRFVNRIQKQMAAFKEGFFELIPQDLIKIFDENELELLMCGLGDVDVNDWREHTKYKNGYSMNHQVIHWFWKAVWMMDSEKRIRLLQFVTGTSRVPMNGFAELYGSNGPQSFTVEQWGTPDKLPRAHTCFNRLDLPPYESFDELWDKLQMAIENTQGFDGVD

Tests used:
[1] = target: Peroxisome proliferator-activated receptor gamma (mouse (endogenous in primary mouse pulmonary fibroblasts)) (UniProt P37238); test: co-IP; cells lysed in RIPA buffer with protease inhibitors; magnetic beads carrying a p-Smad3 antibody, a PPARγ antibody or IgG, 1 h at room temperature; Western blot; cells treated with lathyrol or pioglitazone; PPARγ siRNA in Figure 5E
[2] = target: Phosphorylated Smad3 (mouse (endogenous in primary mouse pulmonary fibroblasts)) (UniProt Q8BUN5); test: as above

Substance | binding [1] | binding [2]
Nedd4 (from UniProt P46935 1-887) (enzyme) | binds | –
Peroxisome proliferator-activated receptor gamma (from UniProt P37238 1-505) | – | binds
